Laboratory results taken from the supplement of paper PMC12462457.
± gives the standard deviation of the averaged measurements. The list shows a part of the results. Repeats in this data set agree poorly, so a single value says little.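 Cells were counted by imaging DAPI-stained nuclei, and cells lacking phalloidin-stained cytoplasm were excluded as dead. Each well's count was divided by the median count of the vehicle wells on the same plate, and values were averaged over two replicate plates.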

System: OVCAR8
Assay: cell count relative to DMSO vehicle (fold change); higher = more surviving senescent cells (less killing)
Details: senescence inducer: cisplatin 10 µM 48 h, then 6 d recovery (CP senescent), exposure time 24 h

SMILES | cell count (compound dose 1 µM) | cell count (compound dose 5 µM)
CO[C@H]1C[C@@H]2CC[C@@H](C)[C@@](O)(O2)C(=O)C(=O)N2CCCC[C@H]2C(=O)O[C@H]([C@H](C)C[C@@H]2CC[C@@H](O)[C@H](OC)C2)CC(=O)[C@H](C)/C=C(\C)[C@@H](O)[C@@H](OC)C(=O)[C@H](C)C[C@H](C)/C=C/C=C/C=C/1C [Rapamycin] | 0.93 ± 0.21 | 0.756 ± 0.11
N[C@@H]1CCCN(c2c(/C=C3\SC(=O)NC3=O)cccc2-c2ccccc2)C1 | 1.15 ± 0.04 | 1.04 ± 0.22
CCOc1ccc(-c2cn(C)nc2-c2cc(OC)c(OC)c(OC)c2)cc1 [Tubulin inhibitor 1] | 0.691 ± 0.021 | 0.744 ± 0.12
Cc1[nH]c(/C=C2\C(=O)Nc3ccccc32)c(C)c1CCC(=O)O [Orantinib] | 0.7245 ± 0.005 | 0.807 ± 0.027
COc1cc(OC)cc(N(CCNC(C)C)c2ccc3ncc(-c4cnn(C)c4)nc3c2)c1 [Erdafitinib] | 1.08 ± 0.22 | 0.553 ± 0.39
CONC(=O)c1ccccc1Nc1cc(Nc2cc(C)nn2C(C)C)ncc1Cl | 0.761 ± 0.031 | 0.853 ± 0.11
C=CCc1ccc(O)c(OC)c1 | 1.2 ± 0.34 | 0.752 ± 0.3
OC[C@@H](O)[C@@H](O)[C@H](O)[C@H](O)CO | 1.03 ± 0.063 | 0.923 ± 0.47
CC(C(=O)O)c1cccc(Oc2ccccc2)c1 (stereo unspecified) [Fenoprofen (Calcium hydrate)] | 0.8175 ± 0.0064 | 0.734 ± 0.066
Oc1ccc(C2CNCCc3c2cc(O)c(O)c3Cl)cc1 (stereo unspecified) | 1.1 ± 0.16 | 0.875 ± 0.019
O=C1NC(=O)/C(=C/c2ccc3nccc(-c4ccncc4)c3c2)S1 | 0.885 ± 0.031 | 0.844 ± 0.099
O=C1NC(=O)C(c2ccccc2[N+](=O)[O-])=C1Nc1ccc(O)c(Cl)c1 | 1.06 ± 0.15 | 0.817 ± 0.15
C[N+](C)(C)CCOP(=O)(O)OP(=O)([O-])OC[C@H]1O[C@@H](n2ccc(N)nc2=O)[C@H](O)[C@@H]1O | 1.18 ± 0.09 | 1.27 ± 0.018
CC1(C)C[C@@H](O)[C@]2(C)CC[C@]3(C)C(=CC[C@@H]4[C@@]5(C)CC[C@H](O)[C@](C)(CO)[C@@H]5CC[C@]43C)[C@@H]2C1 [Soyasapogenol B] | 0.767 ± 0.013 | 0.667 ± 0.24
C[C@@H]1O[C@@H](O[C@H]2[C@H](O[C@H]3[C@H](O[C@H]4CC[C@]5(C)[C@H]6CC=C7[C@@H]8CC(C)(C)CC[C@]8(C(=O)O)CC[C@@]7(C)[C@]6(C)CC[C@H]5C4(C)C)OC[C@H](O)[C@@H]3O)O[C@H](CO)[C@@H](O)[C@@H]2O)[C@H](O)[C@H](O)[C@H]1O [Raddeanin A] | 1.04 ± 0.14 | 0.072 ± 0.05
CCCCCN(C)CCC(O)(P(=O)(O)O)P(=O)(O)O | 0.995 ± 0.18 | 0.901 ± 0.12
CCS(=O)(=O)Nc1ccc(Oc2ccc(F)cc2F)c(-c2cn(C)c(=O)c3[nH]ccc23)c1 [Mivebresib] | 0.454 ± 0.0071 | 0.191 ± 0.036
O=c1ccc2cc3ccoc3cc2o1 [Psoralen] | 1.01 ± 0.19 | 0.717 ± 0.12
Oc1ccc2c(c1)OC[C@]1(O)Cc3cc(O)c(O)cc3[C@H]21 [Brazilin] | 0.84 ± 0.073 | 0.627 ± 0.14
C=C(C)[C@@H]1CC[C@]2(C(=O)O)CC[C@]3(C)[C@H](CC[C@@H]4[C@@]5(C)CC[C@H](O)C(C)(C)[C@@H]5CC[C@]43C)[C@@H]12 [Betulinic acid] | 1.21 ± 0.03 | 1.12 ± 0.095
Nc1nc(F)nc2c1ncn2[C@@H]1O[C@H](COP(=O)(O)O)[C@@H](O)[C@@H]1O [Fludarabine (phosphate)] | 1.39 ± 0.23 | 1.24 ± 0.27
O=C(NOCC1CC1)c1ccc(F)c(F)c1Nc1ccc(I)cc1Cl | 1.2 ± 0.086 | 0.615 ± 0.053

Ordered by count of non-hydrogen atoms (rising): 3 of the compounds above.
SMILES | cell count (compound dose 1 µM) | cell count (compound dose 5 µM)
O=C(NOCC1CC1)c1ccc(F)c(F)c1Nc1ccc(I)cc1Cl | 1.2 ± 0.086 | 0.615 ± 0.053
COc1cc(OC)cc(N(CCNC(C)C)c2ccc3ncc(-c4cnn(C)c4)nc3c2)c1 [Erdafitinib] | 1.08 ± 0.22 | 0.553 ± 0.39
CO[C@H]1C[C@@H]2CC[C@@H](C)[C@@](O)(O2)C(=O)C(=O)N2CCCC[C@H]2C(=O)O[C@H]([C@H](C)C[C@@H]2CC[C@@H](O)[C@H](OC)C2)CC(=O)[C@H](C)/C=C(\C)[C@@H](O)[C@@H](OC)C(=O)[C@H](C)C[C@H](C)/C=C/C=C/C=C/1C [Rapamycin] | 0.93 ± 0.21 | 0.756 ± 0.11

(next part)

SMILES | cell count (compound dose 1 µM) | cell count (compound dose 5 µM)
COc1cc(O)c2c(=O)cc(-c3ccc(OC)c(-c4c(O)cc(O)c5c(=O)cc(-c6ccc(O)cc6)oc45)c3)oc2c1 [Ginkgetin] | 0.775 ± 0.043 | 0.773 ± 0.083
CC1(C)CCC(c2ccc(Cl)cc2)=C(CN2CCN(c3ccc(C(=O)NS(=O)(=O)c4ccc(N[C@H](CCN5CCOCC5)CSc5ccccc5)c(S(=O)(=O)C(F)(F)F)c4)cc3)CC2)C1 [Navitoclax] | 0.173 ± 0.0042 | 0.0375 ± 0.013
CC(C)C[C@H](NC(=O)[C@H](Cc1ccccc1)NC(=O)c1cnccn1)B(O)O [Bortezomib] | 0.425 ± 0.0028 | 0.125 ± 0.011
COc1ccc(-c2coc3cc(O)ccc3c2=O)cc1 | 0.842 ± 0.0028 | 0.656 ± 0.086
COc1ncc(-c2nc3c(n2C(C)C)[C@H](c2ccc(Cl)cc2)N(c2cc(Cl)cn(C)c2=O)C3=O)c(OC)n1 [Siremadlin] | 0.838 ± 0.019 | 0.588 ± 0.25
CCCCc1ccc(NC(C)=O)c(C)c1 | 0.989 ± 0.22 | 0.976 ± 0.034
O=C1NC(=O)/C(=C\c2cccc(C(F)(F)F)c2)S1 | 1.02 ± 0.29 | 0.904 ± 0.076
O=C1/C(=C/c2cccs2)CC/C1=C\c1cccs1 | 1.14 ± 0.046 | 0.885 ± 0.21
CCCSc1ccc2[nH]c(NC(=O)OC)nc2c1 | 0.938 ± 0.18 | 0.8205 ± 0.005
CCc1ccc(CCOc2ccc(CC3SC(=O)NC3=O)cc2)nc1 (stereo unspecified) | 1.09 ± 0.12 | 0.996 ± 0.31
O=C(CCCCCCC(=O)Nc1cccnc1)NO [Pyroxamide] | 0.909 ± 0.023 | 0.562 ± 0.14
CN(C)c1nc2c(Br)c(Br)c(Br)c(Br)c2n1CC(=O)O | 1.24 ± 0.17 | 1.19 ± 0.35
CCC(C)(C)C(=O)C(=O)N1CCCC[C@H]1C(=O)O[C@H](CCc1ccc(OC)c(OC)c1)c1cccc(NC(=O)CCC(=O)O)c1 [SLF-amido-C2-COOH] | 0.857 ± 0.033 | 0.628 ± 0.04
O=C(O)CCc1nc(-c2ccccc2)c(-c2ccccc2)o1 | 1.22 ± 0.15 | 1.25 ± 0.18
CN(CCCCCCNc1ccnc2cc(Cl)ccc12)CCCCCCNc1ccnc2cc(Cl)ccc12 | 1.04 ± 0.19 | 0.017 ± 0.0014
COc1ccc([C@@H]2CC(=O)c3c(O)cc(O)cc3O2)cc1O [Hesperetin] | 1.17 ± 0.35 | 1.16 ± 0.44
O=c1cc(-c2ccccc2)oc2c(O)c(O)ccc12 | 1.07 ± 0.2 | 1.27 ± 0.16
COc1cc(C(=O)OCCCCN=C(N)N)cc(OC)c1O[C@@H]1O[C@H](C(=O)O)[C@@H](O)[C@H](O)[C@H]1O | 1.08 ± 0.076 | 1.25 ± 0.12
Cc1c(C(=O)Nc2ccc(Oc3ccnc4[nH]cc(-c5ccccc5)c34)c(F)c2)c(=O)n(-c2ccc(F)cc2)n1C | 0.862 ± 0.15 | 1.04 ± 0.03
CN[C@@H](C)C(=O)N[C@H](C(=O)N1CCC[C@H]1c1nc(C(=O)c2ccc(F)cc2)cs1)C1CCCCC1 | 0.355 ± 0.084 | 0.248 ± 0.024
C=Cc1cc(O)cc2nc(-c3ccc(O)c(F)c3)oc12 [Prinaberel] | 1.06 ± 0.19 | 1.08 ± 0.012
